Data as given in publication PMC6029763.

Chains of the proteins cited; added tags and fusions are not shown. Lines headed by an entry give the natural chain unless they say otherwise; changes in a name come on top.
UniProt P23771: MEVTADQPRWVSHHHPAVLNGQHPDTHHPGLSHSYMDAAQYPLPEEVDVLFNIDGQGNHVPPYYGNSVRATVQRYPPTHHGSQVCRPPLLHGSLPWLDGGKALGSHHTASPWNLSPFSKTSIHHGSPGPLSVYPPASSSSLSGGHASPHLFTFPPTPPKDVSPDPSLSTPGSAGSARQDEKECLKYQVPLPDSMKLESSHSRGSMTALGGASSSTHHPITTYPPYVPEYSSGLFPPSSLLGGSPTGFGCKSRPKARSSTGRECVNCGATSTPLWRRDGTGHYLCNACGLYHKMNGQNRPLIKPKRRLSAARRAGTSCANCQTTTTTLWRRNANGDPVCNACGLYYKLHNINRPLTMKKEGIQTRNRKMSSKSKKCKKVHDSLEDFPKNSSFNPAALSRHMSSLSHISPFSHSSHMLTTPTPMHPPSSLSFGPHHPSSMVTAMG

Legend:
[1] = molecular target: GATA3 (Th2 nuclear extract) (Homo sapiens) (UniProt P23771); experiment: competition with a labelled probe; conditions: 100X cold competitor; EMSA: 50 mM NaCl, 10% glycerol, poly dI:dC 50 ng/uL, BSA 0.2 ug/uL, protease inhibitor, on ice 30 min; 5% native PAGE, 0.5X TBE, 4 C; pH not stated; protein in an extract; label: unlabeled
[2] = molecular target: T1, NFAT1 (Th2 nuclear extract) (Homo sapiens) (UniProt Q13469); experiment: competition with a labelled probe; conditions: 100X cold competitor; EMSA: 50 mM NaCl, 10% glycerol, poly dI:dC 50 ng/uL, BSA 0.2 ug/uL, protease inhibitor, on ice 30 min; 5% native PAGE, 0.5X TBE, 4 C; pH not stated; protein in an extract; label: unlabeled
T1 sequence (looked up, limits assumed): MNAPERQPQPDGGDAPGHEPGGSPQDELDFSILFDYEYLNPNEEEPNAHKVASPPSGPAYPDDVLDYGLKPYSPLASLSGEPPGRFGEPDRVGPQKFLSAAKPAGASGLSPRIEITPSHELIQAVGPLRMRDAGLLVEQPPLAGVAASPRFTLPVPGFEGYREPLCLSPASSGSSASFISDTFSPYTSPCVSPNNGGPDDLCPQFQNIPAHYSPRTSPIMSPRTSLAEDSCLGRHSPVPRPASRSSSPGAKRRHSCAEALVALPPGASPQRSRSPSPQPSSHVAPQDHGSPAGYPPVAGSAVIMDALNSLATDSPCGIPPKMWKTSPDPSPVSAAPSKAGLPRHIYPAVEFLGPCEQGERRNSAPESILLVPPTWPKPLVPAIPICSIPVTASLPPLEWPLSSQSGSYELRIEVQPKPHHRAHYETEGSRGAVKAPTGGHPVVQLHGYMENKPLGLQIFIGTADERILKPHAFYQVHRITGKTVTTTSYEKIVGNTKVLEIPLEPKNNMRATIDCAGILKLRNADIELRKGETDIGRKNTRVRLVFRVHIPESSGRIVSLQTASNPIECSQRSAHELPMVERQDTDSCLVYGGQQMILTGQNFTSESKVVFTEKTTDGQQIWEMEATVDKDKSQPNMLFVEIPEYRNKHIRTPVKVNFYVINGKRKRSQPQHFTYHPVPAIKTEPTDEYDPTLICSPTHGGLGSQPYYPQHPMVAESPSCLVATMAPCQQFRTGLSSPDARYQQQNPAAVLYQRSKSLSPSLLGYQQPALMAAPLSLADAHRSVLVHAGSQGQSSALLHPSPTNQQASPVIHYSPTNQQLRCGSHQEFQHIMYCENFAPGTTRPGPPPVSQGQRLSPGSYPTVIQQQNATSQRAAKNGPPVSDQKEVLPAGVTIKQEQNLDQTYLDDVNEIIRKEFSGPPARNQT

[3] = molecular target: GATA3 (recombinant human, TnT) (Homo sapiens) (UniProt P23771); experiment: EMSA; conditions: EMSA: 50 mM NaCl, 10% glycerol, poly dI:dC 50 ng/uL, BSA 0.2 ug/uL, protease inhibitor, on ice 30 min, 5% native PAGE, 0.5X TBE, 4 C, pH not stated, protein translated in vitro
[4] = molecular target: T2, NFAT1 (recombinant human, TnT) (Homo sapiens) (UniProt Q13469); experiment: EMSA; conditions: EMSA: 50 mM NaCl, 10% glycerol, poly dI:dC 50 ng/uL, BSA 0.2 ug/uL, protease inhibitor, on ice 30 min, 5% native PAGE, 0.5X TBE, 4 C, pH not stated, protein translated in vitro
T2 sequence (looked up, limits assumed): T1 sequence (looked up, limits assumed)

[5] = molecular target: GATA3 (recombinant human, TnT) (Homo sapiens) (UniProt P23771); experiment: competition with a labelled probe; conditions: 100X cold competitor, EMSA: 50 mM NaCl, 10% glycerol, poly dI:dC 50 ng/uL, BSA 0.2 ug/uL, protease inhibitor, on ice 30 min, 5% native PAGE, 0.5X TBE, 4 C, pH not stated, protein translated in vitro
[6] = molecular target: GATA3 (Th2 nuclear extract) (Homo sapiens) (UniProt P23771); experiment: EMSA supershift; conditions: PMA/ionomycin 3 h extract; EMSA: 50 mM NaCl, 10% glycerol, poly dI:dC 50 ng/uL, BSA 0.2 ug/uL, protease inhibitor, on ice 30 min; 5% native PAGE, 0.5X TBE, 4 C; pH not stated; protein in an extract; label: 5'-32P as probe, unlabeled as competitor
[7] = molecular target: T1, NFAT1 (Th2 nuclear extract) (Homo sapiens); experiment: EMSA supershift; conditions: PMA/ionomycin 3 h extract; EMSA: 50 mM NaCl, 10% glycerol, poly dI:dC 50 ng/uL, BSA 0.2 ug/uL, protease inhibitor, on ice 30 min; 5% native PAGE, 0.5X TBE, 4 C; pH not stated; protein in an extract; label: 5'-32P as probe, unlabeled as competitor
[8] = molecular target: GATA3 (recombinant human, TnT) (Homo sapiens) (UniProt P23771); experiment: EMSA with self-competition and supershift; conditions: EMSA: 50 mM NaCl, 10% glycerol, poly dI:dC 50 ng/uL, BSA 0.2 ug/uL, protease inhibitor, on ice 30 min; 5% native PAGE, 0.5X TBE, 4 C; pH not stated; protein translated in vitro; label: 5'-32P as probe, unlabeled as competitor
[9] = label: 5'-32P as probe, unlabeled as competitor

“CCTCTATCTGATTGTTAGCC (double strand) [GATA3 consensus]”: binds [1].

“CGGAGGAAAAACTGTTTCATACAGAAGGCGTG (double strand) [NFAT consensus]”: binds [2].

“CGGCATTCATGGAAATTGATGAAATTTGAAC (double strand) [GATA3-m1+m3 (Gm1+m3)]”: no binding [3, 9]; binds more weakly ([4]; binds (lane 9), appeared lower affinity than Gm3 probe (lane 10), label: 5'-32P as probe, unlabeled as competitor); no binding [5, 9].

“CGGCATTCATGGAAATTGATGATATTTGAAC (double strand) [GATA3-m1 (Gm1)]”: no binding [3, 9]; no binding [5, 9].

“CGGCATTGATCCTTATTGATGATATTTGAAC (double strand) [NFAT1.1 (N1 mutant)]”: binds ([3]; label: 5'-32P); no binding ([4]; label: 5'-32P).

“CGGCATTGATGGAAATTCATGATATTTGAAC (double strand) [GATA3-m2 (Gm2)]”: binds ([5]; label: unlabeled).

“CGGCATTGATGGAAATTGATGAAATTTGAAC (double strand) [GATA3-m3 (Gm3)]”: no binding [3, 9]; binds [4, 9]; no binding [5, 9].

“CGGCATTGATGGAAATTGATGATATTTGAAC (double strand) [CRTh2 proximal]”: binds [6]; binds [7]; binds [8].

The exact form of at least one protein or probe is not confirmed. For some of these results: Negatives hold for the conditions tested. For some of these results: Protein sequences can lack the tags named with them. For some of these results: The comparison behind a weaker result is the experiment's own reference, which may not be listed here. For some of these results: At least one result comes from cells or an extract, where the contact may be indirect. For some of these results: At least one verdict rests on a figure or table, not on a statement of the authors.
